Results taken from the supplement of paper PMC10338343.
± gives the standard deviation. The list shows a part of the results. The uncertainty is large for many entries.

What follows are sequences tested on EfPiwi piRISC loaded with L1MC piRNA (26 nt) (assay: pre-steady-state target cleavage rate (min^-1); guide: L1MC piRNA 5'p-UAACUAAAUACUAUGCAAGCUGUAGG; MIWI and MILI are mouse PIWI proteins and EfPiwi is from a freshwater sponge; tags in brackets are library labels; higher = faster piRNA-guided slicing of the target). Details: auxiliary factor: 500 nM Ephydatia muelleri Gtsf1.
Experimental: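 Cleave-'n-Seq: a library of target RNAs (target site in constant flanks) at […] was incubated with 1 nM active freshwater sponge Ephydatia fluviatilis Piwi piRISC (synthetic 5'-monophosphorylated piRNA guide) with or without 500 nM EmGtsf1 at 33 °C for 1 min to 16 h. Uncleaved targets were sequenced and the pooled three trials fitted to a burst-and-steady-state model to give the pre-steady-state cleavage rate (min^-1). Sequence is the target site only. Fits with R² ≤ 0 are excluded.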
In the case of UCCUCCUACAGCUUGCAUAGUAUUAACAAA, the “pre-steady-state target cleavage rate” value is reported as 0.00454 ± 0.0033. With UCCUGGAUGUCCUUGCACUAGUAUUUAGUUA the “pre-steady-state target cleavage rate” value was 0.00173 ± 0.0065. With “UCCUGGAACAGCUUGCAUUCAUAAAUCAAA [g13:g23:cont:t1A]” the “pre-steady-state target cleavage rate” value was 0.000469 ± 0.0066. With UCCUGGUACAGCUUGCAUUGUUUUUAGUUA the “pre-steady-state target cleavage rate” value was 0.000697 ± 0.0086. UCCUGGAUGAGCUUGCUAUGUAUUUAGUAA was tested, and the “pre-steady-state target cleavage rate” value was 0.000498 ± 0.008. For UCCUGCUACAGCUUGCUUACUAUUUAGUUA, the “pre-steady-state target cleavage rate” value was 0.0113 ± 0.005. UCCUGGAUGUCGAAGCAUACUAUUUAGUUA was tested, and the “pre-steady-state target cleavage rate” value was 0.000364 ± 0.0099. UCCUGGAACAGCUUGCAUAGUAUAAAGAAA was tested, and the “pre-steady-state target cleavage rate” value was 0.00217 ± 0.0021. In the case of UCCUGGAACAGCUUGCAUAGUAUAAACAAA, the “pre-steady-state target cleavage rate” value is reported as 0.00237 ± 0.0044. UCCUGGAUGUCGAUGCAUAGUAUUAACUUA was tested, and the “pre-steady-state target cleavage rate” value was 0.00017 ± 0.018. In the case of UCCUGGAUGUGCUUGCUUUGUAUUUAGUUA, the “pre-steady-state target cleavage rate” value is reported as 0.000391 ± 0.01. With UCCUGGAUGAGCUUGGAUAGUAUUUAGUAA the “pre-steady-state target cleavage rate” value was 0.00277 ± 0.003. For UCCUGGUACAGCUUGCAUAGUUUUAAGUUA, the “pre-steady-state target cleavage rate” value was 0.00117 ± 0.0067. With UCCUGCUACAGCUUGCAAAGUAUUUAGAAA the “pre-steady-state target cleavage rate” value was 0.00352 ± 0.002. UCCUGGUAGAGCUUGCAUAGUAUUUAGUUA was tested, and the “pre-steady-state target cleavage rate” value was 0.0138 ± 0.0044. UCCUGGAUGAGCUUGCAUAGUAUUUAGAUA was tested, and the “pre-steady-state target cleavage rate” value was 0.00326 ± 0.0019. UCCUGGAUGAGCUUGCUAUAGUAUUUAGUUA was tested, and the “pre-steady-state target cleavage rate” value was 0.00201 ± 0.003. For UCCUCCAACAGCUUGCAUAGUAUUUAGUAA, the “pre-steady-state target cleavage rate” value was 0.00668 ± 0.0028. With UCCUCCUACAGCUUGCAUAGUAUUUAAGUUA the “pre-steady-state target cleavage rate” value was 0.00943 ± 0.0038. With UCCUGGAACAGUUGCAUAGUAUUUAGUUA the “pre-steady-state target cleavage rate” value was 0.0543 ± 0.013. With UCCUGGAUGUCGUUCAUAGUAUUUAGUUA the “pre-steady-state target cleavage rate” value was 0.000886 ± 0.0062. For UCCUGGAUGAGCUUGACAUAGUAUUUAGUUA, the “pre-steady-state target cleavage rate” value was 0.00729 ± 0.0021. In the case of UCCUGGUACAGGUUGCAAAGUAUUUAGUUA, the “pre-steady-state target cleavage rate” value is reported as 0.00511 ± 0.0028. UCCUGGAUGUCGAACCAUAGUAUUUAGUUUA was tested, and the “pre-steady-state target cleavage rate” value was 0.0006 ± 0.012.

Same assay, conditions: auxiliary factor: none (no Gtsf1)
UCCUCCUACAGCUUGCAUAGUAUUAACAAA was tested, and the “pre-steady-state target cleavage rate” value was 0.000396 ± 0.012. “UCCUGGAACAGCUUGCAUUCAUAAAUCAAA [g13:g23:cont:t1A]” was tested, and the “pre-steady-state target cleavage rate” value was 0.000254 ± 0.028. For UCCUGGUACAGCUUGCAAACUAUUUAGUUA, the “pre-steady-state target cleavage rate” value was 0.000789 ± 0.012. UCCUGGAACAGCUUGCAUAGUAUAAAGAAA was tested, and the “pre-steady-state target cleavage rate” value was 0.000294 ± 0.028. For UCCUGGAUGUCGAUGCAUAGUAUUAACUUA, the “pre-steady-state target cleavage rate” value was 0.00011 ± 0.071. In the case of UCCUGGAUGUGCUUGCUUUGUAUUUAGUUA, the “pre-steady-state target cleavage rate” value is reported as 0.000424 ± 0.026. With UCCUGGUACAGCUUGCAUAGUUUUAAGUUA the “pre-steady-state target cleavage rate” value was 0.000851 ± 0.015. UCCUGGUAGAGCUUGCAUAGUAUUUAGUUA was tested, and the “pre-steady-state target cleavage rate” value was 0.000622 ± 0.02. In the case of UCCUGGAUCAGCUGGCAUAGUAUUUAGUUA, the “pre-steady-state target cleavage rate” value is reported as 0.000859 ± 0.0098. In the case of UCCUGGAUGAGCUUGCAUAGUAUUUAGAUA, the “pre-steady-state target cleavage rate” value is reported as 0.00141 ± 0.0058. In the case of UCCUGGAUGAGCUUGCUAUAGUAUUUAGUUA, the “pre-steady-state target cleavage rate” value is reported as 0.00101 ± 0.0075. UCCUGGAUGUCGAUGGAUAGUAAUUAGUUA was tested, and the “pre-steady-state target cleavage rate” value was 0.00029 ± 0.022. In the case of UCCUGGAACAGUUGCAUAGUAUUUAGUUA, the “pre-steady-state target cleavage rate” value is reported as 0.00165 ± 0.006. In the case of UCCUGGAUGUCGUUCAUAGUAUUUAGUUA, the “pre-steady-state target cleavage rate” value is reported as under 0.0001. With UCCUGGAUGAGCUUGACAUAGUAUUUAGUUA the “pre-steady-state target cleavage rate” value was 0.000789 ± 0.0095. For UCCUGGUACAGGUUGCAAAGUAUUUAGUUA, the “pre-steady-state target cleavage rate” value was 0.000721 ± 0.013.
